Assay results: article PMC12516554
No constants are given. Whether binding was seen depends on the method and setting. Binding seen in cells or lysates may run through a third protein. Some entries that bind do so weakly or less than the wild type.

Amino acid sequences for entries named in this document (tags omitted).
UniProt Q16665: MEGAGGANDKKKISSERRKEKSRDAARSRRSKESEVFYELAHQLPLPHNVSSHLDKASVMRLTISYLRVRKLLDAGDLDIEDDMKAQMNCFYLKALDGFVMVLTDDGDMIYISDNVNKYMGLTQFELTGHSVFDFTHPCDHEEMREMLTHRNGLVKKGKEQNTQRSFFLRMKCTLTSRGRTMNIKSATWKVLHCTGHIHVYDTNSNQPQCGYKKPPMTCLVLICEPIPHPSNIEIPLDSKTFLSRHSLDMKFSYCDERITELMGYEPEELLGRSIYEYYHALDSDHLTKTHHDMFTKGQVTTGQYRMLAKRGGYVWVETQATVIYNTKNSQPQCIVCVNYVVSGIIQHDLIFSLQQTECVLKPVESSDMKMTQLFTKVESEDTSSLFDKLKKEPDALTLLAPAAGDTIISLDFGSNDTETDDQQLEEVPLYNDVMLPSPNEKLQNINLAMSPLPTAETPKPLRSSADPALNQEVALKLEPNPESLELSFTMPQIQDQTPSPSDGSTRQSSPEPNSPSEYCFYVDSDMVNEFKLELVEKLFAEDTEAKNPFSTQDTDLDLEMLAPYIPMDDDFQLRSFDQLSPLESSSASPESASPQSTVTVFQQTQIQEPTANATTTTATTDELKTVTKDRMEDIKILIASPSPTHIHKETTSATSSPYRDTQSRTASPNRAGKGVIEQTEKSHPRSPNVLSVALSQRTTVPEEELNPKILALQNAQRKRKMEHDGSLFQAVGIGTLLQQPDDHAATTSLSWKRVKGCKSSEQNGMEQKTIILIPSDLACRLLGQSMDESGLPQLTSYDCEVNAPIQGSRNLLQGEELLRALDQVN

Biological target: T1, Zinc finger MYND-type containing 8 (human (endogenous in MCF7)) (UniProt Q9ULU4)
T1 sequence: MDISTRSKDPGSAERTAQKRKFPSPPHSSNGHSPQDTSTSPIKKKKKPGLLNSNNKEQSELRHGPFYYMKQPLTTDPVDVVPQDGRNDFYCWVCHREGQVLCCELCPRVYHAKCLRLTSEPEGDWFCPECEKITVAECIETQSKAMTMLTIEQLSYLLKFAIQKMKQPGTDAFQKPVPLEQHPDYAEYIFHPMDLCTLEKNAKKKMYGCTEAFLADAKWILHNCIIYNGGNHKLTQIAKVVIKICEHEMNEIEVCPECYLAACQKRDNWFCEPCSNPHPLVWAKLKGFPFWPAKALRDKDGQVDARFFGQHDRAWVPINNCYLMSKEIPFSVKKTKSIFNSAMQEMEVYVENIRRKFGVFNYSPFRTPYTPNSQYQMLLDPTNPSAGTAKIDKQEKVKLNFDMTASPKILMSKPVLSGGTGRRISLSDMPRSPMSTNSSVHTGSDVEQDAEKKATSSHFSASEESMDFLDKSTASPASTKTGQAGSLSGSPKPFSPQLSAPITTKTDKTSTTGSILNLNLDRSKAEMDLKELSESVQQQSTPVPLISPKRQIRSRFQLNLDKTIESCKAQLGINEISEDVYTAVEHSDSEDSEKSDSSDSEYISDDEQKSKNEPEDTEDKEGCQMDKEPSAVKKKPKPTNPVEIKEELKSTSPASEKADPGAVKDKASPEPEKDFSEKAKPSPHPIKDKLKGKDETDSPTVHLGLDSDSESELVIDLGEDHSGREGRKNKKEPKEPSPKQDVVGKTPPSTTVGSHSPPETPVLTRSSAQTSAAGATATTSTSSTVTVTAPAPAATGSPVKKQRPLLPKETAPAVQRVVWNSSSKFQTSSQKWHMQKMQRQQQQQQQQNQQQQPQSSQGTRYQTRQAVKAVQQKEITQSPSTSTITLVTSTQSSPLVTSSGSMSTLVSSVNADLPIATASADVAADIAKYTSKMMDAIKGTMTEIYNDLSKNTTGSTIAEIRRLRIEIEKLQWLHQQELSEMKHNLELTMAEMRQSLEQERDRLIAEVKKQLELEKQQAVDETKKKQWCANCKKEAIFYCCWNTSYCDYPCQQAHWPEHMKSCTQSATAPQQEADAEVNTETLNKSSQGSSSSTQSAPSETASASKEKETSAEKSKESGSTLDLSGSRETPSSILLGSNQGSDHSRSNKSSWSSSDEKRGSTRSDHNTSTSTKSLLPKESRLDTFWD
Experiment: co-IP; immunoprecipitation with anti-ZMYND8 antibody from RIPA lysates of hypoxia-treated MCF7 cells (precleared; beads washed three times with RIPA buffer); western blot

hypoxia-inducible factor 1-α (from UniProt Q16665 1-826)
binding: binds
